# Data as given in publication doi:10.1101/2021.02.10.429309.
# These are yes or no findings as the source states them, for the method shown. In cells and extracts the contact can be indirect. A yes stands for co-enrichment or nearness to the bait. Other partners may have been found.
# B1: Ras GTPase-activating protein-binding protein 2 (protein, UniProt Q9UN86 1-482)
# chain: MVMEKPSPLLVGREFVRQYYTLLNKAPEYLHRFYGRNSSYVHGGVDASGKPQEAVYGQNDIHHKVLSLNFSECHTKIRHVDAHATLSDGVVVQVMGLLSNSGQPERKFMQTFVLAPEGSVPNKFYVHNDMFRYEDEVFGDSEPELDEESEDEVEEEQEERQPSPEPVQENANSGYYEAHPVTNGIEEPLEESSHEPEPEPESETKTEELKPQVEEKNLEELEEKSTTPPPAEPVSLPQEPPKAFSWASVTSKNLPPSGTVSSSGIPPHVKAPVSQPRVEAKPEVQSQPPRVREQRPRERPGFPPRGPRPGRGDMEQNDSDNRRIIRYPDSHQLFVGNLPHDIDENELKEFFMSFGNVVELRINTKGVGGKLPNFGFVVFDDSEPVQRILIAKPIMFRGEVRLNVEEKKTRAARERETRGGGDDRRDIRRNDRGPGGPRGIVGGGMMRDRDGRGPPPRGGMAQKLGSGRGTGQMEGRFTGQRR
# Target: 3×HA-tagged KRAS (KRAS-4B) (UniProt P01116)
# Assay: affinity purification with mass spectrometry
binder,measurement,value
B1,binding,binds
